## Primary screen of a compound library

Mtb heat-shock: 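Assay on Mycobacterium tuberculosis, filed only as a heat shock assay from Cornell; the read-out is not stated. The concentration is filed as 10 mM, unlikely as a test dose, so the dose is not known. Direction is inferred from retests: higher values go with stronger inhibition. About 69,000 compounds were tested under these conditions; 1.4% (about 930) showed 50% or more at least once.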
Mtb growth Cornell: 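Whole-cell assay for inhibitors of Mycobacterium tuberculosis growth, labelled Cornell in the record; the read-out is not stated. The concentration is filed as 10 mM, unlikely as a test dose, so the dose is not known. The record gives no direction; compounds strong in two other growth screens of this library score well above the rest, so higher reads as stronger inhibition. About 53,000 compounds were tested under these conditions; 1.7% (about 900) showed 50% or more at least once.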

Values are the deposited “Percent Effect”, in %.
The controls that fix the scale are not given in the record; negative values are as filed.
Compounds were drawn at random from those tested, without regard to their results.
A dash means the value is not listed here; it may have been measured.

SMILES,Mtb heat-shock,Mtb growth Cornell
Fc1ccccc1OC1CCN(CCn2cc3ccccc3n2)CC1,-3.458,24.37
Cc1cc(N2CCCC2c2nc(C)cc(CCC(=O)O)n2)ncn1 (centres unmarked),-10.86,-3.923
Cn1cc(CN2CCC3(CC2)COC(COc2ccccn2)C3)cn1 (centres unmarked),-7.128,16.05
CCc1ccc(CN(C/C=C/c2ccccc2)CCOC)nc1,98.48,29.58
OC1(CN(Cc2cccnc2)C2CCCCC2)CNCCOC1 (centres unmarked),-7.596,20.3
COc1ccc(OC)c(C2CCN(C(=O)CCc3n[nH]c(N)n3)C2)c1 (centres unmarked),-19.98,-
CC(C)(C)c1noc(CCCC(=O)N2CCNC(=O)CC2)n1,-127.8,-
O=C(CCN1CCc2ccccc21)N1CC(C(=O)N2CCOCC2)C1,25.09,-13.67
O=C(NCc1cc(O)ncn1)C1CCOc2ccccc2C1 (centres unmarked),-3.393,32.03
CN(Cc1ccc(F)c2cccnc12)C1CCS(=O)(=O)C1 (centres unmarked),-41.98,-0.2457
O=c1ccc2c([nH]1)CCC(NCc1ccncc1)C2 (centres unmarked),-35.1,-
CCn1cnnc1CNC(=O)NCC(C(C)C)N1CCOCC1 (centres unmarked),5.161,-15.2
CCN(C)S(=O)(=O)c1c(F)cc(NC(C)=O)cc1F,-5.72,11.85
CN(C)CCn1ccc2ccc(NC(=O)c3ccncc3F)cc21,-0.7695,13.76
NC(=O)C1CCN(Cn2nc(-c3ccc(F)cc3)oc2=O)C1 (centres unmarked),-1.103,-
CN(C)C(C(=O)N1CCN(C(=O)c2ccc[nH]2)CC1)c1ccc(F)cc1 (centres unmarked),-2.573,-10.55
CCN1CC2(CC1=O)CN(Cc1cnn(C)c1)CCN(C(C)=O)C2.O=C(O)C(F)(F)F (centres unmarked),6,-16.63
Cc1nc(-c2ccco2)ccc1C(=O)NCC(=O)N1CCCCC1,-18.21,12.65
Cn1cc(C2CCCN2Cc2csc(-c3ccccc3)n2)cn1 (centres unmarked),13.61,-
COC(=O)c1ccc2ccn(CC3CCCO3)c(=O)c2c1 (centres unmarked),2.464,-2.715
Cc1cc(C(=O)N2CCNC(=O)C2)c(C)n1CC(F)(F)F,-140.8,-
COC1COC2(CCN(CC3CCOCC3)CC2)C1.O=C(O)C(F)(F)F (centres unmarked),-4.711,-7.471
CN(C)[C@H]1CCN(c2ccnc(C(=O)NCc3ccco3)c2)C1,19.62,19.3
Cl.O=C(O)[C@@H]1CCCN1c1nccc(Nc2ccccc2)n1,-32.31,-8.495
O=C(O)C(F)(F)F.[H][C@@]12CCN(C(=O)c3ccoc3)[C@@]1([H])CC(=O)N2CCN1CCOCC1,-30.04,-7.301
CCOCC(O)CN1CCN(C(=O)c2ccc(N(C)C)nc2)CC1 (centres unmarked),-1.884,18.97
O=C(c1cc2ccccc2o1)N1CCN(Cn2cc(Cl)cn2)CC1,-5.168,-12.9
CC(C)n1ccnc1C1CCN(C(=O)c2ccc(SCCO)cc2)CC1,-39.78,3.051
[H][C@@]12CCN(C[C@@H]1c1cc(-c3cccs3)nn1C)[C@@H](CNC(=O)COC)C2,-5.89,-5.726
CC(C)c1noc(C(C)N2CCC(c3nc4ccccc4[nH]3)CC2)n1 (centres unmarked),-8.412,16.32
Cc1ncc(C(=O)N2CCCC(C(=O)c3nccn3C)C2)c(O)n1 (centres unmarked),4.433,-
Cc1cccc(CN2CCc3c(CNC(=O)CC#N)nn(C)c3C2)n1.O=C(O)C(F)(F)F,-7.983,-13.79
O=C(C1CC(=O)N(c2n[nH]c3cc(Br)ccc23)C1)N1CCOCC1 (centres unmarked),-0.3775,28.34
O=C(O)C(F)(F)F.[H][C@@]12CCN(C3CCOCC3)C[C@@]1([H])[C@H](C(=O)NCc1ccco1)CCO2,-37.62,-56.03
[H][C@@]12C[C@H](C(=O)NC)[C@@]([H])(CN(C(=O)NC(C)C)C1)O2,-9.019,-29.78
CCOCCN1CCn2c(C)nnc2C1,-11.54,-
CCc1noc(C)c1C(=O)N1CCN(c2nc(C)cc(OC)n2)CC1,-17.76,-11.11
O=C(O)C(F)(F)F.O=C(O)C(F)(F)F.[H][C@]12CCC(=O)N(Cc3cccc(C)n3)[C@@]1([H])CCN2CC(=O)N(C)C,-3.319,15.36
CC1CN(Cc2ccc(-n3cccn3)cc2)CCO1 (centres unmarked),-13.45,-
Cc1nnc(CN(C)CC(=O)N2CCCN(C3CCCC3)CC2)n1C,-116,-

Source: ChEMBL document CHEMBL3988442, “University of Dundee, Small-Polar-MMV Screening Library” (2021).